# Results of single-concentration screens

Measurements from “University of Dundee, Small-Polar-MMV Screening Library” (2021), ChEMBL document CHEMBL3988442.

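Whole-parasite assay of Trypanosoma brucei over 72 hours; the read-out is not stated. Tested at 30 µM. The record gives no direction; compounds that gave an IC50 in retests scored well above the rest, so higher reads as stronger inhibition. Values scatter widely below zero; nearly all retest evidence comes from the higher of the two concentrations used. About 64,000 compounds were tested under these conditions; 1.5% (about 940) showed 50% or more at least once.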

The filed quantity is “Percent Effect” (%). How 0% and 100% were set is not recorded. Most values in the screen are low, and negative values occur. This is an unselected part of the compounds tested.

structure,Percent Effect
CC(C)CN1CCN(C(=O)Nc2cc(C(F)(F)F)c[nH]c2=O)CC1,27.25
O=C(O)C(F)(F)F.[H][C@]12CCC[C@@]1(COCc1cccnc1)CN(C(=O)c1ncccn1)C2,-44.28
CCn1cc(NC(=O)NCC(O)c2ccccc2)cn1 (stereo unspecified),-16.94
CCOc1ccc(CCCC(=O)N2CCC(C(=O)NC)C2)cc1C (stereo unspecified),-16.71
Cc1cc(C(=O)NC(C)CC(=O)c2ccco2)[nH]n1 (stereo unspecified),-107
CC(C)c1nccn1C1CCCN(C(=O)CCCc2ccccn2)C1 (stereo unspecified),7.879
COc1ccc(F)c(F)c1CN1CCC2(CC1)[C@H](O)C[C@@H]2OCCN,-4.609
O=C(c1cncc(N2CCCC3(CCNCC3)CC2)n1)N1CCCCC1,-50.08
COC(=O)c1ccc(N2CCN(CCC(=O)NC(N)=O)C(C)C2)cc1 (stereo unspecified),17.38
O=C(Nc1cccnc1N1CCCC1)C1CCS(=O)(=O)C1 (stereo unspecified),-10.47
O=C(O)C(F)(F)F.O=C(O)C(F)(F)F.O=C(O)C(F)(F)F.[H][C@]12CCCC(N3CCN(c4ncccn4)CC3)[C@@]1([H])CN(CC1CC1)C2 (stereo partly specified),31.46
COc1cccc2c1OCC(CNC(=O)CNC(N)=O)C2 (stereo unspecified),6.904
COc1cccc(CNCc2cccc(Cl)c2)c1O,-7.253
CNC(=O)CC1COCCN1C(=O)C1(c2ccc(Cl)cc2)CCC1 (stereo unspecified),-26.14
COc1cccc(N2CCN(C(=O)C(O)CC(C)C)CC2=O)c1 (stereo unspecified),-1.49
CNC(=O)N1CCc2cc(C(=O)N(C)C)c(NCC3CC3)nc2CC1.O=C(O)C(F)(F)F,22.33
COCC(=O)N1CCN(C(C)C(=O)NC(C)C)CC1 (stereo unspecified),-48.21
CN(C)C(=O)N1Cc2nnn(CC3CC3)c2C(COCC2CC2)C1 (stereo unspecified),-35.51
O=C(O)C(F)(F)F.O=C(O)C(F)(F)F.[H][C@@]12COC[C@]1(COCc1ccncc1)CN(Cc1cccs1)C2,-26.6
CN1N=C(C(=O)N2CCN(c3ncccc3Cl)CC2)CCC1=O,-7.244
CCn1cnnc1C1CCN(C(=O)C(OC)c2ccccc2)CC1 (stereo unspecified),-12.93
Cc1nc2c(cc1C(=O)O)CCN(Cc1ccsc1)CC2.O=C(O)C(F)(F)F.O=C(O)C(F)(F)F,-6.304
O=C(NCc1cccnc1)[C@H]1CN2CCC1C[C@@H]2Cn1cc(CO)nn1 (stereo partly specified),-13.53
Cl.NC(C(=O)N1CCSc2ccccc2C1)c1ccccc1 (stereo unspecified),1.138
CC(=O)Nc1nc(C(=O)N2CCCC(n3cncn3)C2)cs1 (stereo unspecified),3.096
O=C(O)C(F)(F)F.c1csc(CN2CCC3(CCOCC3COCC3CC3)CC2)n1 (stereo unspecified),-46.34
[H][C@]12CC[C@](O)(CC1)C(CN1CCOCC1)N2C(=O)Nc1ccccc1 (stereo partly specified),6.609
[H][C@@]12CCN(C3CCC3)[C@]1([H])CC[C@H](C(=O)NCCc1ccncc1)O2,-16.13
O=C(O)C(F)(F)F.O=C(O)C(F)(F)F.[H][C@@]12CCN(c3ncc(F)cn3)[C@]1([H])CC[C@@H](C(=O)NCc1cccnc1)O2,-19.77
Cc1c(-c2cc(C(=O)N3CCc4ncc(Cl)cc4C3)on2)cnn1C,-5.319
CC(C)n1ccnc1C1CCN(Cc2ccc(Cl)s2)CC1,48.1
O=c1n(Cc2cccc(C(F)(F)F)c2)nc2ncccn12,-39.45
CC(C)C(=O)N1CCC(c2nc3c([nH]2)CCCNC3=O)CC1,-11.47
CC(C)(C)c1ccc(-n2ncc3c2CCCC3N)cc1 (stereo unspecified),97.82
CC(C)c1cc(CN2CCN(c3cccnc3)CC2)n(C)n1,-4.094
Cc1nc(CN[C@H]2CCCN(C(=O)OC(C)(C)C)C2)cs1,-8.99
COc1ccc(Cl)cc1NCc1cc(C)on1,-2.489
Cn1c(C(F)(F)F)nn(CCNC(=O)Nc2ccccc2F)c1=O,8.487
CC(NC(=O)C1=NN(C)C(=O)CC1)c1ccc(Cl)cc1Cl (stereo unspecified),-67.95
CCCn1cc(-c2cc(C(=O)N(C)C)c3cccc(C)c3n2)cn1,-11.5
O=C(O)C(F)(F)F.[H][C@@]12CCN(c3ncccn3)C[C@@]1([H])O[C@@H](C(=O)NCCOC)C2,-89.35
CC(C)C(=O)N1CCN(Cc2ccccn2)CC2(CC(=O)N(C)C2)C1.O=C(O)C(F)(F)F.O=C(O)C(F)(F)F (stereo unspecified),-62.93
COc1cccc(-c2cnc3n2CCC32CCN(S(C)(=O)=O)CC2)c1,-54.65
O=C(O)C(F)(F)F.O=C(O)C(F)(F)F.[H][C@]12C[C@H](C(=O)NC)N(C(C)C)[C@@]1([H])CN(C(=O)c1ccc(C)nc1)C2,-15.28
O=C1N(c2ccsc2)CCC12CCCN(c1ncc(F)cn1)C2 (stereo unspecified),6.515
COc1ccccc1CCNC(=O)CNC1CCc2nc(C)nn2C1 (stereo unspecified),-16.29
OC[C@H]1CN(Cc2c(Cl)cccc2Cl)C[C@H]1CN1CCCCC1,-73.48
O=C(NCc1cccnc1)c1nc2c(s1)CCCN2c1ncccn1,-34.31
O=C(O)C(F)(F)F.O=C(O)C(F)(F)F.[H][C@]12CCN(Cc3cccs3)[C@@]1([H])C[C@H](C(=O)N1CCN(C)CC1)O2,-15.62
CC(=O)NC[C@]1(O)CCN(C(=O)c2ccc(F)c(Cl)c2)C[C@H]1O,-14.49
CCNC(=O)NCc1ccc(CN2CCCC(C)C2)cc1 (stereo unspecified),5.169
Cn1ccnc1C(=O)N1CCC2(CC1)CC(Oc1cccnc1)CO2.O=C(O)C(F)(F)F (stereo unspecified),24.28
Cc1noc(C)c1C(=O)NCCc1cccs1,-7.515
COC(=O)Cn1c(=O)nc2n1C(=O)N(c1ccc(C)cc1)C2,-53.01
CN(C(=O)CN(Cc1cccc(O)c1)C1CCC(O)CC1)C1CC1 (stereo unspecified),-21.09
CNC(=O)N1CCC2(CC1)C(=O)N(C)c1c(F)cccc12,-32.73
CCc1nccn1C1CCCN(C(=O)c2ccc(-n3ccnc3)cc2)C1 (stereo unspecified),3.899
CCc1nnc(NCc2cccc(OC)c2OC)o1,-55.16
CCCN1CCC(CC(=O)N2CC(C)(C)[C@@](C)(O)C2)CC1,-0.6766
CCOCCN(C)C(=O)Nc1cccc2c1CCN(CC)C2,-21.03
O=C(c1cccs1)N1CCC2(CC1)CCN(S(=O)(=O)C1CC1)CC2,8.089
CCNC(=O)COc1cc(CC)c2c(C)nn(-c3ccc(C)cc3)c2n1,4.914
CN(C)C(=O)N1CCN(c2ccc3ccc(C(=O)NC4CC4)cn23)CC1,-0.9027
Cc1cc2c(cc1C(=O)N1CC[C@H](CO)[C@@H](O)C1)OCCO2,37.94
O=C(c1cnccn1)N1CCC2(CC1)CC(Oc1ccccc1)CO2 (stereo unspecified),5.284
O=C(O)c1cc(-c2ccn(CC3CC3)n2)n2ccccc12,-1.96
[H][C@@]12CS(=O)(=O)C[C@]1([H])N(C(=O)c1ccc3ccccc3n1)CCN2CCC,-25.79
COc1cc(C)nc(N2CCN(C(=O)c3ccc[nH]3)CC2)n1,8.7
CCc1nc(CN(C)C2CCN(CCS(C)(=O)=O)C2)no1 (stereo unspecified),-0.5657
CCc1nccn1CCC(=O)N1CCN(c2ccccc2C)CC1C (stereo unspecified),6.584
CC(C)N(C)C(=O)C1CCC2(CCNCC2)O1.Cl (stereo unspecified),-26.62
Cn1cc(Cl)c(CN2CCn3nc(C(=O)N4CCCC4)cc3C2)n1,-3.066
CC(C)NC(=O)N1CCN(Cc2ccccn2)CC2(CC(=O)N(C)C2)C1.O=C(O)C(F)(F)F.O=C(O)C(F)(F)F (stereo unspecified),-18.3

Repeated from the top, 8 entries:

* CC(C)CN1CCN(C(=O)Nc2cc(C(F)(F)F)c[nH]c2=O)CC1 | 27.25%
* O=C(O)C(F)(F)F.[H][C@]12CCC[C@@]1(COCc1cccnc1)CN(C(=O)c1ncccn1)C2 | -44.28%
* CCn1cc(NC(=O)NCC(O)c2ccccc2)cn1 (stereo unspecified) | -16.94%
* CCOc1ccc(CCCC(=O)N2CCC(C(=O)NC)C2)cc1C (stereo unspecified) | -16.71%
* Cc1cc(C(=O)NC(C)CC(=O)c2ccco2)[nH]n1 (stereo unspecified) | -107%
* CC(C)c1nccn1C1CCCN(C(=O)CCCc2ccccn2)C1 (stereo unspecified) | 7.879%
* COc1ccc(F)c(F)c1CN1CCC2(CC1)[C@H](O)C[C@@H]2OCCN | -4.609%
* O=C(c1cncc(N2CCCC3(CCNCC3)CC2)n1)N1CCCCC1 | -50.08%